According to patent US20230346949A1 (SANOFI, priority 2019, published 2023):

Test: peptide synthesis
Details: conjugation step

For “conjugate of insulin analog 2 with 16-[4-[[5-[2-[2-[2-[2-[2-[2-(2,5-dioxopyrrolidin-1-yl) oxy-2-oxo-ethoxy] ethoxy]ethylamino]-2-oxo-ethoxy]ethoxy]ethylcarbamoyl]pyrimidin-2-yl]sulfamoyl]phenoxy]hexadecanoate [conjugate 1]”, the “final HPLC purity” value (210 nm) was 98.0%, the conjugation yield (based on the amount of insulin analog 1 used, calculated from HPLC data, run 1) was 50% and the conjugation yield (based on the amount of insulin analog 1 used, calculated from HPLC data, run 2) was 80%. For the same substance, the conjugation yield (based on the amount of insulin analog 1 used, calculated from HPLC data, run 3) was 72%, the conjugation yield (based on the amount of insulin analog 1 used, calculated from HPLC data, run 4) was 84% and the conjugation yield (based on the amount of insulin analog 2 used) was 14%.
